Construct, isoform or probe ends are uncertain for at least one entry. Where cells or extracts were used, other partners may take part. For part of these data: At least one verdict was read from the data and is not stated in words by the source. Tags and fusion partners may be left off the protein sequences shown. For part of these data: Whether high values mean tight binding is not given here for every scale.
Key:
[1] = target: T1, serum response factor (SRF) (rat (neonatal rat ventricular myocytes)) (UniProt D3ZHH8); experiment: EMSA; conditions: Phactr1 adenovirus 1 MOI, NRVM nuclear extract vs LacZ; 10 ug nuclear extract, room temperature 20 min, 5% polyacrylamide gel in 0.5x TBE; binding buffer, salt and pH not given; protein in an extract; label: 32P (alpha-32P-dCTP)
T1 sequence (looked up, limits assumed): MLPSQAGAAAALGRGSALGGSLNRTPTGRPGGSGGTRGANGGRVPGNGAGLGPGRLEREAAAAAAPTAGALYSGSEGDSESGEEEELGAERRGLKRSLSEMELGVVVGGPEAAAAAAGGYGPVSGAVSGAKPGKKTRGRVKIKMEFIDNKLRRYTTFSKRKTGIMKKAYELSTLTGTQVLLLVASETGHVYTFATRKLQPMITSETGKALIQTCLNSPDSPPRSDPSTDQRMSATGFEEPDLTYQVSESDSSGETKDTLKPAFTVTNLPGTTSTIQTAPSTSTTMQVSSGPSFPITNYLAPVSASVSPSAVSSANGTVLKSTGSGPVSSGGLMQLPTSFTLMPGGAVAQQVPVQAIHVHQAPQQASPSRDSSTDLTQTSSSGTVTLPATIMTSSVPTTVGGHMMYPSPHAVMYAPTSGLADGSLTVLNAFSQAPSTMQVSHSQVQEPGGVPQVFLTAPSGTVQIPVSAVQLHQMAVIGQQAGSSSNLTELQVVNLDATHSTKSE

[2] = target: T1, serum response factor (SRF) (rat (neonatal rat ventricular myocytes)); experiment: competition with a labelled probe; conditions: unlabelled 100x probe as competitor; 10 ug nuclear extract, room temperature 20 min, 5% polyacrylamide gel in 0.5x TBE; binding buffer, salt and pH not given; protein in an extract; label: 32P (alpha-32P-dCTP)
[3] = target: T1, serum response factor (SRF) (rat (neonatal rat ventricular myocytes)); experiment: EMSA supershift; conditions: SRF antibody 4 ug, NRVM nuclear extract; 10 ug nuclear extract, room temperature 20 min, 5% polyacrylamide gel in 0.5x TBE; binding buffer, salt and pH not given; protein in an extract; label: 32P (alpha-32P-dCTP)

Which results are given for “ACAGGATGTCCATATTAGGACATCT (double strand) [rat c-fos SRF probe]”?
binding signal [1]: 1.7 fold vs LacZ; binding result [2]: binds; binding result [3]: binds

From paper PMC4476650
